{
  "sequences": {"note": "Amino acid sequences for entries named in this document (tags omitted). Residues count along the entry.", "UniProt P70452, residues 1-274": "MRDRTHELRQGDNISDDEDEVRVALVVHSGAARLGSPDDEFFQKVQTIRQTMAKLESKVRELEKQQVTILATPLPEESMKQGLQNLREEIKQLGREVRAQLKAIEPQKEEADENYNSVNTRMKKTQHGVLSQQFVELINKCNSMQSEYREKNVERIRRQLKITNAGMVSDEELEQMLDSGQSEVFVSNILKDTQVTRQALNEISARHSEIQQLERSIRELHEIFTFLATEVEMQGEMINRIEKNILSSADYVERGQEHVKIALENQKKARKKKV"},
  "source": "paper PMC3411842",
  "binders": {"B1": {"name": "Flag-tagged Synip WT (syntaxin 4 interacting protein) (protein, UniProt Q9WV89 1-557)", "chain": "MSDGTASARSSSPLDRDPAFRVITVTKETGLGLKILGGINRNEGPLVYIHEVIPGGDCYKDGRLKPGDQLVSINKESMIGVSFEEAKSIITRAKLRSESPWEIAFIRQKSYCGHPGNICCPSPQVSEDCGPQTSTFTLLSSPSETLLPKTSSTPQTQDSTFPSCKAIQTKPEHDKTEHSPITSLDNSPADTSNADIAPAWTDDDSGPQGKISLNPSVRLKAEKLEMALNYLGIQPTKEQREALREQVQADSKGTVSFGDFVQVARSLFCLQLDEVNVGVHEIPSILDSQLLPCDSLEADEVGKLRQERNAALEERNVLKEKLLESEKHRKQLIEELQNVKQEAKAVAEETRALRSRIHLAEAAQRQAHGMEMDYEEVIRLLEAEVSELKAQLADYSDQNKESVQDLRKRVTVLDCQLRKSEMARKAFKASTERLLGFIEAIQEVLLDSSAPLSTLSERRAVLASQTSLPLLARNGRSFPATLLLESKELVRSVRAILDMDCLPYGWEEAYTADGIKYFINHVTQTTSWIHPVMSALNLSCAEESEEDCPRELTDPKS"}},
  "key": {"[1]": {"molecular_target": "GST-tagged syntaxin 4 (cytoplasmic portion) (UniProt P70452)", "experiment": "pull-down; purified GST-syntaxin 4 on glutathione sepharose beads mixed with RIPA lysate of CHO cells expressing Flag-Synip WT or ΔWW, cells serum starved 4 h, with or without 100 nM insulin for 15 min; 2 h at 4°C; anti-Flag immunoblot; only the target purified"}, "[2]": {"molecular_target": "GST-tagged syntaxin 4 (cytoplasmic portion) (UniProt P70452)", "experiment": "pull-down; purified GST-syntaxin 4 on glutathione sepharose beads mixed with RIPA lysate of 3T3L1 adipocytes expressing Flag-Synip WT or ΔWW, basal state (serum starved 4 h); 2 h at 4°C; anti-Flag immunoblot, band densities quantified (n = 3); only the target purified"}},
  "note": "No constants are given. Whether binding was seen depends on the method and setting. In cells and extracts the contact can be indirect. Some results given as binding are weak or reduced against the parent protein; the word gives no strength. Tags and fused reporters may be left off the sequences shown.",
  "data": [
    {"binder": "B1", "values": [
      {"measurement": "binding", "setting": "[1]", "value": "binds"},
      {"measurement": "binding", "setting": "[2]", "value": "binds"}
    ]}
  ]
}
